Reference: doi:10.1101/2022.05.18.492403
These are yes or no findings as the source states them, for the method shown. Binding calls can cover weak binding; strength is not graded here. Where a sequence is shown, tags or fusion partners need not be part of it.

Chains of the proteins cited; added tags and fusions are not shown. Lines headed by an entry give the natural chain unless they say otherwise; changes in a name come on top.
UniProt P73954: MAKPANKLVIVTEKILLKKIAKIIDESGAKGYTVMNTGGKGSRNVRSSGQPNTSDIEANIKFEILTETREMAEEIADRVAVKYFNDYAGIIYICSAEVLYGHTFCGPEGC

Tests used:
[1] = molecular target: T1, recombinant N-terminal His6-tagged TrxA protein encoded by slr0623 (Synechocystis) (UniProt P52231); assay: pull-down
T1 sequence: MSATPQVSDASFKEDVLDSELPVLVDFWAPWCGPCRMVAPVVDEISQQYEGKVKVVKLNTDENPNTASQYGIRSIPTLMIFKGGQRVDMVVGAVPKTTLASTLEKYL

[2] = molecular target: T2, C-terminally tagged T18-TrxA (BACTH fusion) (Synechocystis) (UniProt P52231); assay: two-hybrid
T2 sequence: T1 sequence

Substance | binding [1] | binding [2]
C-terminal StrepII-tagged ScSbtB C105A+C110A variant (from UniProt P73954) | binds weakly | 
N-terminal T25-SbtB-[C105A+C110A] fusion (BACTH) (from UniProt P73954) |  | binds weakly
N-terminal T25-SbtB-Δ104 (BACTH fusion) (from UniProt P73954) (domain or fragment) |  | no binding
